PubChem BioAssay AID2685 (National Center for Advancing Translational Sciences (NCATS), 2010)
Among all 320,000 compounds or so, about 2,100 (0.66%) were called active. The shares of active, inactive and inconclusive entries below differ from those in the screen. The call rests on the fitted dose curve; in most records, active means well fitted inhibition curve with a large enough effect in the signal ratio, with a control signal flat (not every such curve was filed as active); inconclusive means small, poorly fitted or top-dose-only effect, or effect the other way, or a change in a side signal; inactive means flat fitted curve, though single readings scatter; the % refers to the signal ratio. Potencies beside an inconclusive call are fits to weak or partial responses and may not hold up.
On the % scale 0 is the no-effect control and ±100 the full control effect; potency means the concentration at half of the fitted maximal effect.

Assay: qHTS Assay for Lipid Storage Modulators in Drosophila S3 Cells
Conditions: BODIPY lipid droplet fluorescence, 18-24 h, cells fed with added oleic acid; lipid storage change, negative = inhibition: at 46.1 µM (top of the series) unless noted
Outline: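 Drosophila S3 cells loaded with oleic acid (400 uM, as added) and compounds at several concentrations; lipid droplets imaged by 488-nm laser-scanning cytometry, 500–530 nm intensity and object ratio to cell channel. Percent activity normalized to 20 uM Triacsin C.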
In the case of `Cc1c(Br)c(C(F)(F)F)nn1CC(=O)NCC1CCCO1` (stereo unspecified), the lipid storage change, negative = inhibition is reported as inconclusive: -2.25%.
For `COc1ccc(NC(=S)N2CCC(Cc3ccccc3)CC2)cc1`, the lipid storage change, negative = inhibition was inconclusive: 31.1%.
In the case of `CCn1c(SCC(N)=O)nc2sc3c(c2c1=O)CCCC3`, the lipid storage change, negative = inhibition is reported as inconclusive: 75.4%.
In the case of `CCOc1ccc(C(=O)NCC(=O)OCCCOC(=O)CNC(=O)c2ccc(OCC)cc2)cc1`, the lipid storage change, negative = inhibition is reported as inconclusive: 31.4%.
With `O=C(CC1NC(=S)NC1=O)c1ccc(Cl)cc1` (stereo unspecified) the lipid storage change, negative = inhibition was inconclusive: 10.2%.
With `CC(C)CC(=O)Nc1nnc(S(=O)(=O)N2c3ccccc3CC2C)s1` (stereo unspecified) the Potency was inconclusive: 32.6 µM [activator, single point].
For `O=C(CCC(=O)N1CCOc2ccc(Cl)cc21)NCCCN1CCN(Cc2ccccc2)CC1`, the Potency was inconclusive: 16.4 µM [falling, partial curve].
With `OCCC1CN(CCCc2ccccc2)CCN1CCc1ccccc1` (stereo unspecified) the lipid storage change, negative = inhibition was inconclusive: 3.37%.
For `CCOC(=O)c1cccc(NC(=O)CN(C)S(=O)(=O)c2cnc[nH]2)c1`, the Potency was inconclusive: 9.2 µM [activator, partial curve].
With `O=C(c1cc(Cl)ccc1Cl)N1CCc2ccccc21` the Potency was inconclusive: 29.1 µM [activator, single point].
With `Cc1ccc(/C=N/N2CCN(c3ccncc3S(=O)(=O)N3CCCCC3)CC2)cc1` the lipid storage change, negative = inhibition was inconclusive: 8.47%.
For `C/C(=N\NC(=O)Cc1cccc2ccccc12)c1ccncc1`, the Potency was inconclusive: 0.58 µM [activator, full curve].
For `O=C(O)Cn1ncc2c1-c1ccoc1CC2`, the lipid storage change, negative = inhibition was inconclusive: 23% [at 9.22 µM].
In the case of `Cn1c(SCc2nc3ccccc3[nH]2)nnc1-c1cccnc1`, the lipid storage change, negative = inhibition is reported as inconclusive: 22.8%.
In the case of `N#C/C(=C/c1ccc(N2CCCCCC2)o1)c1ccc(Cl)cc1`, the Potency is reported as inconclusive: 18.4 µM [cytotoxic, single point].
For `O=C(NCCCc1ccccc1)c1ccc(F)cc1`, the lipid storage change, negative = inhibition was inconclusive: -46.1%.
For `COc1ccccc1NC(=O)Nc1ncccc1C`, the Potency was inconclusive: 8.2 µM [falling, partial curve, poor fit].
With `CCOC(=O)C1=C(C)Nc2ncnn2C1c1ccc2c(c1)OCO2` (stereo unspecified) the Potency was inconclusive: 0.731 µM [activator, full curve].
With `O=C(NC1=NCCS1)c1ccc2c(c1)C(=O)N(Cc1ccco1)C2=O` the lipid storage change, negative = inhibition was inconclusive: 0.49%.
With `COc1cc(/C=C/c2cc[n+](C)cc2)ccc1OCC(=O)Nc1ccc(Cl)c(Cl)c1` the lipid storage change, negative = inhibition was inconclusive: 1.38%.
In the case of `COc1ccccc1NC(=O)CN1CCN(CC(=O)Nc2ccc3c(c2)OCCO3)CC1`, the Potency is reported as inconclusive: 18.4 µM [activator, single point].
For `CCCNc1c(NS(=O)(=O)c2ccc(C3CCCCC3)cc2)c(=O)oc2ccccc12`, the Potency was inconclusive: 29.1 µM [falling, single point].
With `CC(c1ccccn1)N(C)C(=O)c1ccc2nc(Cc3cccc(Cl)c3)oc2c1` (stereo unspecified) the lipid storage change, negative = inhibition was inconclusive: -17.6%.
In the case of `Cc1ccc(NC(=O)c2cccc(OC(F)F)c2)c(OC(F)F)c1`, the lipid storage change, negative = inhibition is reported as inconclusive: 22.7%.
For `CC1CC(C)(C)Nc2ccc(OC(=O)c3ccco3)cc21` (stereo unspecified), the Potency was inconclusive: 16.4 µM [falling, single point].
In the case of `CC1(c2ccc(Cl)cc2)NC(=O)N(CC(=O)NCc2ccc(F)cc2)C1=O` (stereo unspecified), the lipid storage change, negative = inhibition is reported as inconclusive: 84.9%.
For `CC1CCN(c2ccc3nnc(CCC(=O)NCc4ccco4)n3n2)CC1`, the Potency was inconclusive: 29.1 µM [falling, single point].
In the case of `N#CCCn1ncn(-c2ccccc2)c1=S`, the lipid storage change, negative = inhibition is reported as inconclusive: 6.16%.
With `Oc1cccc(C(O)CNCc2ccc(-c3ccccc3)cc2)c1` (stereo unspecified) the lipid storage change, negative = inhibition was inconclusive: 36.1%.
In the case of `O=C(NCc1ccco1)c1ccccc1NC(=O)C1CC(=O)N(c2ccc(Cl)cc2)C1` (stereo unspecified), the lipid storage change, negative = inhibition is reported as inconclusive: 6.32%.
In the case of `Cc1ccc(CNC(=O)CN(C)S(=O)(=O)c2cccs2)cc1`, the lipid storage change, negative = inhibition is reported as inconclusive: -7.19%.
With `COc1ccc(NC(=O)Nc2cc(C)ccc2OC(F)F)c(OC)c1` the Potency was inconclusive: 0.0731 µM [activator, partial curve, poor fit].
In the case of `COc1ccc(CCN(C(=O)Cn2nnc3ccccc32)C(C(=O)NCC2CCCO2)c2ccncc2)cc1OC` (stereo unspecified), the lipid storage change, negative = inhibition is reported as inconclusive: 32.7%.
In the case of `Cc1ccc2oc(-c3cccc(NC(=O)/C=C/c4cccc([N+](=O)[O-])c4)c3C)nc2c1`, the lipid storage change, negative = inhibition is reported as inconclusive: 5.86%.
For `COc1cc(C2NC(=O)NC(C)=C2C(=O)OC2CCCC(C)C2)ccc1O` (stereo unspecified), the lipid storage change, negative = inhibition was inconclusive: 30.5%.
In the case of `CC1CCN(c2ccc3nnc(CCC(=O)NCCCOC(C)C)n3n2)CC1`, the lipid storage change, negative = inhibition is reported as inconclusive: 8.68%.
